{"source": "patent US9913828B2", "about": "“Benzothiazolone compound” (Novartis AG, priority 2011, dated 2018)", "key": {"[1]": {"tested_on": "isolated rabbit sino-atrial nodes", "experiment": "Sino-atrial node beating rate in isolated rabbit right atrium"}, "[2]": {"tested_on": "isolated Langendorff perfused rabbit hearts", "experiment": "Automaticity in isolated Langendorff perfused rabbit hearts", "conditions": "isolated rabbit heart"}}, "data": [{"smiles": "COc1ccc(CC(C)NCC(O)c2ccc(O)c(NC=O)c2)cc1", "note": "(centres unmarked) [Formoterol, reference compound]", "values": [{"measurement": "Sino-Atrial node beating rate, maximum increase (n = 6)", "setting": "[1]", "value": "+45%"}, {"measurement": "Automaticity, maximum increase (n = 3)", "setting": "[2]", "value": "+46%"}]}]}
